Laboratory results published in PubChem BioAssay AID540276 (National Center for Advancing Translational Sciences (NCATS), 2011).
The campaign covered roughly 300,000 compounds. About 5,400 (1.8%) were called active. Inconclusive results, whose numbers are uncertain, are shown with a selection of clear calls. Calls come from the whole dose curve; tested in HEK293 cells. Potencies beside an inconclusive call are fits to weak or partial responses and may not hold up.

Assay: qHTS for inhibitors of binding or entry into cells for Marburg Virus
Settings: Marburg virus pseudotyped entry inhibition, cell reporter; series mostly up to 37.8 µM
Potency is the fitted concentration of half-maximal effect.

For COc1cc(CNCC(C)C)cc(Br)c1OCC(=O)Nc1ccccc1, which Potency is on record?
Its Potency is inconclusive: 29.1 µM [inhibitor, single point].

For CC(C)NC(=O)c1ccccc1-c1ccccc1, which Potency is on record?
The Potency was “inactive”.

Which Potency does the source give for COC(=O)c1[nH]c2cccc(OC)c2c1NC(=O)C(C)N1CCC(C)CC1 (stereo unspecified) here?
The Potency was “inactive”.

For O=C(CSC(=S)N1CCOCC1)N1N=CCC1c1ccccc1 (stereo unspecified), which Potency is on record?
Its Potency is “inactive”.

Which Potency does the source give for Nc1c(-c2nc(-c3ccc(Cl)cc3)cs2)c2ccccn2c1C(=O)c1ccc2c(c1)OCO2 here?
The Potency was “inactive”.

For CCCCCCCCOC(=O)/C=C/c1c(C)[nH]c(=O)[nH]c1=O, which Potency is on record?
Its Potency is inconclusive: 6.31 µM [inhibitor, single point].

Which Potency does the source give for COC(=O)c1ccc(C(=O)NC2CCCc3c2cnn3-c2cc(F)cc(F)c2)nc1 (stereo unspecified) here?
Its Potency is inconclusive: 2.24 µM [inhibitor, partial curve, poor fit].

Which Potency does the source give for Cc1ccc(OCCn2cc(/C=C(\C#N)C(=O)NCC3CCCO3)c3ccccc32)cc1 (stereo unspecified) here?
Its Potency is inconclusive: 8.91 µM [inhibitor, partial curve, poor fit].

With O=C(CSc1nnc2c3ccccc3c3ccccc3c2n1)Nc1ccccc1F as the molecule, how does the Potency read?
The Potency was “inactive”.

Which Potency does the source give for Cc1ccc(NC(=O)Cn2cc(C(=O)c3ccccc3)c3ccccc32)c(C)c1 here?
Its Potency is inconclusive: 7.94 µM [inhibitor, partial curve, poor fit].

With COC(=O)Cc1c(C)nc2nc(-c3ccco3)[nH]n2c1=O as the molecule, how does the Potency read?
Its Potency is inconclusive: 10 µM [activator, partial curve, poor fit].

Which Potency does the source give for CCN(CC)CCCNc1nc(CN2CCOCC2)nc2sc3c(c12)CCC3 here?
The Potency was inconclusive: 17.8 µM [inhibitor, single point].

Which Potency does the source give for COc1cccc(NC(=O)CN(C)C(=O)c2cc(-c3ccccc3)nc3ccccc23)c1 here?
Its Potency is inconclusive: 8.91 µM [inhibitor, partial curve, poor fit].

For CNC(=O)/C(C#N)=C/c1ccc(-c2ccc(OC)cc2[N+](=O)[O-])o1, which Potency is on record?
The Potency was “inactive”.

Which Potency does the source give for Cc1nc2c(C#N)c(C)[nH]n2c(=O)c1Cc1ccccc1 here?
The Potency was “inactive”.

Which Potency does the source give for CNC(=O)c1nnsc1S(=O)c1ccc(Cl)cc1 (stereo unspecified) here?
Its Potency is inconclusive: 2.51 µM [inhibitor, full curve, poor fit].

Which Potency does the source give for CCC(=O)N1CCc2cc(Br)cc(S(=O)(=O)N(C)c3ccc(OC)cc3OC)c21 here?
Its Potency is inconclusive: 12.6 µM [inhibitor, partial curve, poor fit].

With CC(=O)c1ccc(NC(=S)Nc2ccc(Br)c(Cl)c2)cc1 as the molecule, how does the Potency read?
Its Potency is “inactive”.

For COCCCNC(=O)CSc1c2c(nc3ccc(Cl)cc13)CCCC2, which Potency is on record?
The Potency was inconclusive: 2 µM [inhibitor, full curve, poor fit].

With CC(=O)C1=C(C)NC(SCC(=O)c2cc(Cl)ccc2Cl)=C(C#N)C1c1ccco1 (stereo unspecified) as the molecule, how does the Potency read?
Its Potency is inconclusive: 11.6 µM [inhibitor, partial curve, poor fit].

Which Potency does the source give for COc1ccc(NC(=O)CSc2nc(=O)n(CCN(C)C)c3c2CCCC3)cc1 here?
The Potency was inconclusive: 2.82 µM [activator, partial curve, poor fit].

Which Potency does the source give for CC(NC(=O)COC(=O)c1ccc2c(c1)OCCO2)c1ccccc1 (stereo unspecified) here?
The Potency was inconclusive: 35.5 µM [inhibitor, single point].

Which Potency does the source give for Cc1ccc(N2CC(C)Cn3c2nc2c3c(=O)n(CC(=O)O)c(=O)n2C)cc1 (stereo unspecified) here?
The Potency was inconclusive: 25.1 µM [activator, single point].

For O=C(O)CCC(=O)Nc1sc2c(c1C(=O)Nc1cccc3ccccc13)CCCCC2, which Potency is on record?
The Potency was “inactive”.

For CCOc1ccccc1OCC(=O)N/N=C(\C)Cc1ccc(OC)cc1, which Potency is on record?
The Potency was inconclusive: 35.5 µM [inhibitor, single point].

For Nc1ccc2c3c(cccc13)-c1ccccc1-2, which Potency is on record?
Its Potency is inconclusive: 3.16 µM [activator, single point].

With CCN(c1ccccc1)c1nnc(NC(=O)Nc2cccc(Br)c2)s1 as the molecule, how does the Potency read?
The Potency was “inactive”.

Which Potency does the source give for CC1(c2ccccc2)CC(C)(C)N2C(=O)Cc3cccc1c32 (stereo unspecified) here?
The Potency was inconclusive: 3.98 µM [inhibitor, partial curve, poor fit].

With Cc1ccc(/C=N/NC(=O)c2ccc3c(c2)OCCO3)s1 as the molecule, how does the Potency read?
The Potency was inconclusive: 6.31 µM [inhibitor, single point].

Which Potency does the source give for COc1ccc(N2CCN(C(=O)c3ccc(CS(=O)(=O)c4ccc(Br)cc4)o3)CC2)cc1 here?
Its Potency is “inactive”.

With CC(=O)c1c(O)n(-c2cccc(Cl)c2)c(=O)[nH]c1=O (tested in a mixture with another compound) as the molecule, how does the Potency read?
Its Potency is “inactive”.

Which Potency does the source give for O=C(CCN1c2ccccc2Sc2ccccc21)OCc1nnc(-c2ccccc2)o1 here?
Its Potency is inconclusive: 0.794 µM [activator, single point].

Which Potency does the source give for CN1CCC(=NNC(=O)C(=O)Nc2cccc(Br)c2)CC1 here?
Its Potency is inconclusive: 35.5 µM [activator, single point].

With COc1ccc(NC(=O)CN(c2ccccc2OC)S(=O)(=O)c2cccs2)cc1Cl as the molecule, how does the Potency read?
The Potency was inconclusive: 35.5 µM [inhibitor, single point].

For COc1ccc(C(C)=O)cc1COC(=O)c1cc(=O)c2ccccc2o1, which Potency is on record?
The Potency was “inactive”.

With COc1ccccc1Sc1nc(-c2ccccc2)ncc1OC as the molecule, how does the Potency read?
The Potency was inconclusive: 22.4 µM [inhibitor, partial curve, poor fit].

For Cc1ccc(OCCOc2cccc(C=C3C(=O)NC(=O)NC3=O)c2)c(C)c1, which Potency is on record?
Its Potency is inconclusive: 1.26 µM [inhibitor, full curve, poor fit].

Which Potency does the source give for Cc1ccc(C(=O)Nc2scc(-c3ccccc3)c2C(=O)O)cc1 here?
The Potency was inconclusive: 22.4 µM [inhibitor, single point].

For Cc1cccc(C)c1NC(=S)N=Nc1c(O)n(C)c2ccc(S(=O)(=O)N3CCOCC3)cc12, which Potency is on record?
The Potency was “inactive”.

Which Potency does the source give for Cc1cccc(NC(=S)N=Nc2c(O)[nH]c3ccccc23)c1 here?
The Potency was inconclusive: 1.84 µM [inhibitor, full curve, poor fit].

For O=C(c1ccc(-c2ccc([N+](=O)[O-])cc2Cl)o1)N1CCOCC1, which Potency is on record?
The Potency was inconclusive: 3.98 µM [inhibitor, partial curve, poor fit].

Which Potency does the source give for CCSc1nnc(-c2cccnc2)n1Cc1ccco1 here?
The Potency was “inactive”.

With Clc1ccc(N/N=C/c2ccncc2)cc1Cl as the molecule, how does the Potency read?
Its Potency is “inactive”.

Which Potency does the source give for Cc1ccc2cc3c(NC(=O)CC(C)C)nn(C)c3nc2c1 here?
The Potency was inconclusive: 35.5 µM [inhibitor, single point].

Which Potency does the source give for O=C1C2=C(C(=O)c3ccccc31)[C@H]1O[C@](c3ccsc3)(Cc3c1ccc1ccccc31)O2 here?
Its Potency is “inactive”.

Which Potency does the source give for Cn1cnnc1SCC(=O)c1c(N)n(Cc2ccccc2)c(=O)n(C)c1=O here?
The Potency was “inactive”.

Which Potency does the source give for Cc1ccc(CNC(=O)N2CCN(S(=O)(=O)c3ccccc3)CC2)cc1 here?
The Potency was inconclusive: 0.891 µM [inhibitor, partial curve, poor fit].

Which Potency does the source give for Cc1ccc(C)c(CNS(=O)(=O)c2c(C(=O)N3CCCC3)c(C)n(C)c2C)c1 here?
The Potency was “inactive”.

With COCc1nnc(NC(=O)C23CC4CC(CC(C4)C2)C3)s1 as the molecule, how does the Potency read?
Its Potency is inconclusive: 14.1 µM [activator, partial curve, poor fit].

With C=CCOc1c(Br)cc(CNn2c(C)n[nH]c2=S)cc1OC as the molecule, how does the Potency read?
Its Potency is “inactive”.

Which Potency does the source give for CCN1C(=NCc2cc(OC)c(OC)c(OC)c2)NC(c2cccc(F)c2)C(C(=O)OC)=C1C (stereo unspecified) here?
The Potency was inconclusive: 0.0133 µM [activator, full curve, poor fit].

With Cc1cc(C(=O)CCC(=O)NC(C)c2ccc(S(N)(=O)=O)cc2)c(C)s1 (stereo unspecified) as the molecule, how does the Potency read?
The Potency was “inactive”.

For Cc1c(NC(=O)C(C)OC(=O)c2ccc(NC(=O)CC#N)cc2)c(=O)n(-c2ccccc2)n1C (stereo unspecified), which Potency is on record?
Its Potency is “inactive”.

For CCOC(=O)C(NC(=O)c1cccc(Cl)c1)(OCc1ccccc1)C(F)(F)F (stereo unspecified), which Potency is on record?
Its Potency is inconclusive: 7.08 µM [inhibitor, full curve, poor fit].

Which Potency does the source give for O=C(O)CNC(=O)/C(=C/c1ccco1)NC(=O)/C=C/c1ccccc1 here?
Its Potency is inconclusive: 15.8 µM [activator, partial curve, poor fit].

For CCCCN(C)C1=Nc2cccc3cccc1c23, which Potency is on record?
Its Potency is inconclusive: 18.3 µM [inhibitor, single point].

Which Potency does the source give for O=C(Nc1ccc(S(=O)(=O)NC2=NCCCCC2)cc1)c1ccc([N+](=O)[O-])s1 here?
Its Potency is inconclusive: 35.5 µM [inhibitor, single point].

Which Potency does the source give for CCOc1cc(/C=C2\SC(=N)N(c3nccs3)C2=O)ccc1OCCN1CCOCC1 here?
The Potency was inconclusive: 16.4 µM [inhibitor, partial curve, poor fit].

With O=C(Nc1ccccc1C(=O)Nc1ccccc1C(=O)NCc1ccco1)c1ccco1 as the molecule, how does the Potency read?
Its Potency is inconclusive: 9.2 µM [inhibitor, partial curve, poor fit].

For Cc1ccc(OCC(=O)NCCNC(=O)c2ccc(C)nc2)cc1, which Potency is on record?
Its Potency is inconclusive: 35.5 µM [activator, single point].

Which Potency does the source give for COCC(=O)N1c2nc(C(C)C)nn2C2(CCCCC2)[C@@H]2CCCC[C@@H]21 here?
The Potency was inconclusive: 11.2 µM [inhibitor, partial curve, poor fit].

For COc1ccc(C(=O)COC(=O)c2n[nH]c3ccccc23)c(OC)c1, which Potency is on record?
The Potency was “inactive”.

With Nc1cc(C(=O)N2CCN(c3ccc([N+](=O)[O-])cc3)CC2)ccc1N1CC2CC(C1)c1cccc(=O)n1C2 (stereo unspecified) as the molecule, how does the Potency read?
Its Potency is inconclusive: 3.55 µM [activator, full curve, poor fit].

For CCc1ccc2c(COC(=O)CNS(=O)(=O)c3ccc(NC(C)=O)cc3)cc(=O)oc2c1, which Potency is on record?
Its Potency is inconclusive: 2.31 µM [activator, partial curve, poor fit].

For Oc1cc2ccccc2nc1-c1ccccc1Cl, which Potency is on record?
The Potency was inconclusive: 35.5 µM [activator, single point].

With O=C(c1cccc(C(F)(F)F)c1)C1CCCN(Cc2cccc(OCCO)c2)C1 (stereo unspecified) as the molecule, how does the Potency read?
Its Potency is inconclusive: 22.4 µM [inhibitor, single point].
